{"source": "PubChem BioAssay AID686938 | Drosophila RNAi Screening Center – 2013", "aim": "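Fly genes required for calcium entry once internal stores are emptied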 (primary screen)", "system": "Drosophila S2R+ cells", "reagents": "long dsRNA against Drosophila genes, about 0.25 µg dsRNA per well, roughly 10,000 cells", "time to read-out": "5 days of knock-down before the calcium assay", "conditions": "thapsigargin (SERCA pump blocker) to empty calcium stores; entry signal taken 4 min after adding it", "measurement": "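Per-well fluo-4 fluorescence in two replicates, unnormalised, measured in resting cells and 4 min after store depletion by the SERCA blocker thapsigargin; ratio of the two present in few wells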", "reading the numbers": "calcium entry signal: higher = stronger calcium signal after store depletion; resting calcium signal: higher = higher resting calcium signal", "units": "calcium entry signal in fluorescence units; resting calcium signal in fluorescence units", "call rule": "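Called when the plate z-score of the entry-to-rest ratio, mean of duplicates, falls below −3; wells with low overall dye signal (Fmax z below −2) or more than five off-targets excluded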", "meaning of the calls": "active = strongly reduced calcium entry; inactive = no strong reduction", "note": "In all, the deposit lists about 23,000 reagents; below is a random part of those that have a named target and a result. Of all reagents, 75 (0.33%) are marked active. 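Raw plate signals without normalisation; calls rest on plate z-scores that were not deposited; ratio present for only 364 wells.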 A number with no mark means an inactive call. The record does not give: the dose of the treatment."}
{"Target gene": "CG31419", "DRSC id": "DRSC15771", "calcium entry signal, replicate 1": 3.36e7, "calcium entry signal, replicate 2": 6.01e7, "resting calcium signal, replicate 1": 1.76e7, "resting calcium signal, replicate 2": 7.40e7}
{"Target gene": "capu", "DRSC id": "DRSC00208", "calcium entry signal, replicate 1": 2.61e7, "calcium entry signal, replicate 2": 3.97e7, "resting calcium signal, replicate 1": 1.44e7, "resting calcium signal, replicate 2": 1.75e7}
{"Target gene": "capu", "DRSC id": "DRSC00209", "calcium entry signal, replicate 1": 2.32e7, "calcium entry signal, replicate 2": 4.00e7, "resting calcium signal, replicate 1": 1.35e7, "resting calcium signal, replicate 2": 1.87e7}
{"Target gene": "capu", "DRSC id": "DRSC00434", "calcium entry signal, replicate 1": 3.78e7, "calcium entry signal, replicate 2": 3.20e7, "resting calcium signal, replicate 1": 1.88e7, "resting calcium signal, replicate 2": 1.60e7}
{"Target gene": "capu", "DRSC id": "DRSC00807", "calcium entry signal, replicate 1": 4.39e7, "resting calcium signal, replicate 1": 2.41e7}
{"Target gene": "GluRIB", "DRSC id": "DRSC10258", "calcium entry signal, replicate 1": 1.77e7, "calcium entry signal, replicate 2": 2.13e7, "resting calcium signal, replicate 1": 9.67e6, "resting calcium signal, replicate 2": 9.95e6}
{"Target gene": "GluRIB", "DRSC id": "DRSC11177", "calcium entry signal, replicate 1": 1.85e7, "calcium entry signal, replicate 2": 2.64e7, "resting calcium signal, replicate 1": 9.89e6, "resting calcium signal, replicate 2": 1.19e7}
{"Target gene": "CG7164", "DRSC id": "DRSC03018", "calcium entry signal, replicate 1": 5.90e7, "calcium entry signal, replicate 2": 5.10e7, "resting calcium signal, replicate 1": 1.88e7, "resting calcium signal, replicate 2": 1.96e7}
{"Target gene": "CG32945", "DRSC id": "DRSC12014", "calcium entry signal, replicate 1": 3.92e7, "calcium entry signal, replicate 2": 3.32e7, "resting calcium signal, replicate 1": 2.15e7, "resting calcium signal, replicate 2": 1.65e7}
{"Target gene": "san", "DRSC id": "DRSC07695", "calcium entry signal, replicate 1": 3.05e7, "calcium entry signal, replicate 2": 2.66e7, "resting calcium signal, replicate 1": 1.83e7, "resting calcium signal, replicate 2": 1.55e7}
{"Target gene": "lncRNA:CR42862", "DRSC id": "DRSC08348", "calcium entry signal, replicate 1": 4.43e7, "calcium entry signal, replicate 2": 4.02e7, "resting calcium signal, replicate 1": 1.99e7, "resting calcium signal, replicate 2": 2.01e7}
{"Target gene": "brn", "DRSC id": "DRSC18746", "calcium entry signal, replicate 1": 5.99e7, "calcium entry signal, replicate 2": 5.60e7, "resting calcium signal, replicate 1": 2.61e7, "resting calcium signal, replicate 2": 2.42e7}
{"Target gene": "CG33468", "DRSC id": "DRSC22940", "calcium entry signal, replicate 1": 3.89e7, "calcium entry signal, replicate 2": 3.62e7, "resting calcium signal, replicate 1": 1.91e7, "resting calcium signal, replicate 2": 1.57e7}
{"Target gene": "crim", "DRSC id": "DRSC10573", "calcium entry signal, replicate 1": 4.19e7, "calcium entry signal, replicate 2": 2.89e7, "resting calcium signal, replicate 1": 3.04e7, "resting calcium signal, replicate 2": 1.38e7}
{"Target gene": "Idgf4", "DRSC id": "DRSC18675", "calcium entry signal, replicate 1": 3.44e7, "calcium entry signal, replicate 2": 4.90e7, "resting calcium signal, replicate 1": 1.75e7, "resting calcium signal, replicate 2": 2.28e7}
{"Target gene": "CG32651", "DRSC id": "DRSC18941", "calcium entry signal, replicate 1": 3.39e7, "calcium entry signal, replicate 2": 4.23e7, "resting calcium signal, replicate 1": 1.51e7, "resting calcium signal, replicate 2": 2.13e7}
{"Target gene": "lace", "DRSC id": "DRSC03564", "calcium entry signal, replicate 1": 4.17e7, "resting calcium signal, replicate 1": 2.30e7}
{"Target gene": "CG32104", "DRSC id": "DRSC10127", "calcium entry signal, replicate 1": 3.03e7, "calcium entry signal, replicate 2": 2.62e7, "resting calcium signal, replicate 1": 1.59e7, "resting calcium signal, replicate 2": 1.35e7}
{"Target gene": "CG32104", "DRSC id": "DRSC10128", "calcium entry signal, replicate 1": 2.98e7, "calcium entry signal, replicate 2": 4.01e7, "resting calcium signal, replicate 1": 1.60e7, "resting calcium signal, replicate 2": 1.93e7}
{"Target gene": "CG3358", "DRSC id": "DRSC04992", "calcium entry signal, replicate 1": 4.09e7, "resting calcium signal, replicate 1": 1.91e7}
{"Target gene": "Dfd", "DRSC id": "DRSC12593", "calcium entry signal, replicate 1": 3.94e7, "calcium entry signal, replicate 2": 3.31e7, "resting calcium signal, replicate 1": 1.92e7, "resting calcium signal, replicate 2": 1.55e7}

Limited to “calcium entry signal, replicate 2”, for 2 of the entries above:
CG31419 [DRSC15771] = 6.01e7
capu [DRSC00208] = 3.97e7
